Source: paper PMC7084798
No constants are given. Whether binding was seen depends on the method and setting. In cells and extracts the contact can be indirect. Binding can be weak; no strength is given.

Molecular target: T1, Bombyx mori Sericin1 (B. mori (endogenous in the middle silk gland)) (UniProt P07856)
T1 sequence: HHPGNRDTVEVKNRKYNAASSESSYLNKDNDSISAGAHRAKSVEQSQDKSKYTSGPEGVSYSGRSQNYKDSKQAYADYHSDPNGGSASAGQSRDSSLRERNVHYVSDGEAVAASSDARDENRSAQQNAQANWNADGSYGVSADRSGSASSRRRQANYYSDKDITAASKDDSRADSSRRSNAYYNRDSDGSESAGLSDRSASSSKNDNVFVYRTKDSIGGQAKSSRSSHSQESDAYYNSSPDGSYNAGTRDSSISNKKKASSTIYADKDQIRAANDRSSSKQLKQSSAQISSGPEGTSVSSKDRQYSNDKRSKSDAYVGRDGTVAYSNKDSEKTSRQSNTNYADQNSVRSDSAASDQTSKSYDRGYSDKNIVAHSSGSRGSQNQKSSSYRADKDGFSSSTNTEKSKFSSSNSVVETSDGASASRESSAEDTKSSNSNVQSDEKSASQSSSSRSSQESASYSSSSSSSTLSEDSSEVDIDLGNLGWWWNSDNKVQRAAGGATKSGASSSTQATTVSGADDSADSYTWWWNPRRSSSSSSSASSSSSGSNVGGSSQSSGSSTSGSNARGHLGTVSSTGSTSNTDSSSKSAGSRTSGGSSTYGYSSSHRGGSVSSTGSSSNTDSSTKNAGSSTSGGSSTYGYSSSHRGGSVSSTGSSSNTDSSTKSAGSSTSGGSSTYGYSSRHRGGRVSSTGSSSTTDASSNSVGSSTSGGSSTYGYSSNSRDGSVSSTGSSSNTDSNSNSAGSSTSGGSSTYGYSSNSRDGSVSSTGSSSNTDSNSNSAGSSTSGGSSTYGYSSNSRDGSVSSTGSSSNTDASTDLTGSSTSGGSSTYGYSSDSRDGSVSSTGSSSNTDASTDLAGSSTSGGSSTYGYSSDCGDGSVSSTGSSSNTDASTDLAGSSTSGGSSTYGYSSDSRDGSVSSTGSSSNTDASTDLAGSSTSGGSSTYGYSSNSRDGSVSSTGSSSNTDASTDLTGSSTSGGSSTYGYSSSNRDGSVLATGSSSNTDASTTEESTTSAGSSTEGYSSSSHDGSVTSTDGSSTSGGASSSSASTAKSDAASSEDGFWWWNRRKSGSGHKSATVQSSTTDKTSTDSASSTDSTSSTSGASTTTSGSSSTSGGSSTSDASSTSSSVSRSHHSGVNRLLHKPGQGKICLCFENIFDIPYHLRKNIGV
Assay: co-IP; 100 ug of proteins extracted from the MSG incubated with anti-Ser1 or anti-BmOsi9a antibody for 1 h at 4 °C; Capturem Protein A columns; rabbit IgG as negative control; eluates blotted with the anti-BmOsi9a antibody

Bombyx mori Osiris9a (B. mori) was tested, and the binding was “binds”.
